Reference: patent US11731970B1, “Pyrrolo[2,3-b]quinoline compounds as antibacterial agents” (KING FAISAL UNIVERSITY, priority 2023, dated 2023)
In brackets after ≈: the same amount, converted by molar mass.

Key:
[1] = tested on: Staphylococcus aureus ATCC 29213; experiment: Antibacterial MIC, CLSI M07-A10 dilution; type: cell-based; settings: ATCC29213
[2] = tested on: Staphylococcus aureus ATCC BAA-1556 (MERSA resistant); experiment: Antibacterial MIC, CLSI M07-A10 dilution; type: cell-based; settings: ATCCBAA1556

In the case of `CN[C@H](CC(C)C)C(=O)N[C@H]1C(=O)N[C@@H](CC(N)=O)C(=O)N[C@H]2C(=O)N[C@H]3C(=O)N[C@H](C(=O)N[C@H](C(=O)O)c4cc(O)cc(O)c4-c4cc3ccc4O)[C@H](O)c3ccc(c(Cl)c3)Oc3cc2cc(c3O[C@@H]2O[C@H](CO)[C@@H](O)[C@H](O)[C@H]2O[C@H]2C[C@](C)(N)[C@H](O)[C@H](C)O2)Oc2ccc(cc2Cl)[C@H]1O` [Vancomycin, reference compound], the MIC [1] is reported as 1 µg/mL (≈ 0.69 µM) and the MIC [2] is reported as 1 µg/mL (≈ 0.69 µM).
